Results: PubChem BioAssay AID2685 (National Center for Advancing Translational Sciences (NCATS), 2010)
The other results are listed elsewhere or left out. Shown are side measurements of this screen, not its main read-out; they come without a call. Compounds called inactive in the main read-out are mostly missing here. Words in brackets tell the shape of the fitted curve; partial curves, single points and poor fits give uncertain potencies.

Assay: qHTS Assay for Lipid Storage Modulators in Drosophila S3 Cells;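 on cell number change: cells counted by Cell Tracker Red CMTPX staining in the red channel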
Conditions: BODIPY lipid droplet fluorescence, 18-24 h; for cell number change: measured here: cell count max response, cells fed with added oleic acid
Summary of the method: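 Laser-scanning cytometry quantifies lipid droplet accumulation (500–530 nm total intensity; droplet/cell object ratio) in oleic acid-fed (400 uM added) Drosophila S3 cells treated with a concentration series. 20 uM Triacsin C defined 100% inhibition.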

[1] = measured here: lipid fluorescence (Fed channel) AC50, cells fed with added oleic acid
[2] = measured here: cell number channel AC50, cells fed with added oleic acid

SMILES | cell number change | AC50 [1] | AC50 [2]
CC(C(=O)Nc1ccc(Br)cc1)N(C)CC(=O)NCc1ccco1 (stereo not given) | -12.6% | – | –
COc1ccc(C(=O)OCC(=O)c2ccc(Cl)s2)c(OC)c1OC | 4.41% | – | –
COc1ccc(OCc2n[nH]c(=S)o2)cc1 | 18.7% | 18.4 µM [rising, single point] | –
CC(=O)c1c(Nc2cccc(F)c2)oc(C)cc1=O | – | 18.4 µM [falling, partial curve] | –
Cc1ccc(C(=O)c2ccccc2C(=O)OCC(=O)NCC2CCCO2)cc1 (stereo not given) | 84.6% | 25.9 µM [rising, partial curve] | 29.1 µM [rising, single point]
COCCCNC(=O)CCc1nc2cccnc2n1Cc1ccc(OC)cc1 | 52.2% | 6.51 µM [rising, single point] | 10.3 µM [rising, partial curve, poor fit]
COc1ccc(C(=O)Nc2nc3ccccc3[nH]2)cc1S(=O)(=O)N1CCCC1 | -8.23% | 0.58 µM [rising, single point] | –
COc1cccc2c1[C@@H]1CN(CCCCn3c(=O)[nH]c4c(sc5ncc(-c6ccccc6)nc54)c3=O)C[C@@H]1CO2 | 12.2% | 18.4 µM [rising, single point] | –
Nc1ccn(C2CC(O)C(CO)O2)c(=O)n1 (stereo not given) | 9.81% | 29.1 µM [rising, single point] | –
COC(=O)c1ccc(NC(=O)Nc2ccc([N+](=O)[O-])cc2)cc1 | -34.4% | 11.6 µM [falling, partial curve] | 16.4 µM [falling, single point]
O=C(Cn1nnc2ccccc2c1=O)NCc1ccco1 | -29.9% | 6.51 µM [falling, single point] | 0.146 µM [falling, full curve]
O=C(CCNC(=O)c1ccc(Cl)cc1)NCC(c1ccco1)N1CCCC1 (stereo not given) | -8.84% | – | –
CCOc1ccc(S(=O)(=O)N2CCC(C(=O)Nc3cccc(NC(C)=O)c3)CC2)cc1 | 18.9% | 29.1 µM [rising, single point] | –
CCN(CC)C(=O)CSc1nnc(CNc2ccc(F)cc2)n1Cc1ccco1 | 1.12% | 23.1 µM [rising, single point] | –
Cc1cn(C(=O)C(C)N2C(=O)c3ccccc3C2=O)c(C)n1 (stereo not given) | – | 0.731 µM [rising, single point] | –
COc1ccc(Cn2c(N)c(C#N)c3nc4ccccc4nc32)cc1 | -58.9% | – | 4.11 µM [falling, single point]
Cc1ccc2cc(CCNC(=O)CCCc3ccccc3)c(=O)[nH]c2c1 | 4.42% | 29.1 µM [rising, single point] | –
CC1=NN(C(=O)c2ccc(Br)cc2)C(O)(C(F)(F)OC(F)(F)F)C1 (stereo not given) | -30.1% | – | 32.6 µM [falling, single point]
O=C(Nc1cccc(S(=O)(=O)N2CCCCC2)c1)C1CCCN1S(=O)(=O)c1ccccc1F (stereo not given) | -27.4% | 23.1 µM [falling, single point] | –

SMILES | cell number change | AC50 [1] | AC50 [2]
CCn1ncc(C2C(C(=O)Nc3ccc(C)cn3)=C(C)NC3=C2C(=O)CCC3)c1C (stereo not given) | – | 1.64 µM [rising, partial curve] | –
COc1cc(/C=N/NC(=O)c2ccccn2)cc2c1OCO2 | 14.3% | 0.00517 µM [rising, full curve, poor fit] | –
CCOC(=O)c1nc(Nc2ccc(C)cc2)c2ccccc2n1 | -14.1% | 18.4 µM [rising, single point] | –
CCCCC(=O)Nc1cc(C)c(NC(=O)c2ccco2)cn1 | 15.3% | – | –
CN(C)S(=O)(=O)n1cc(/C=C(\NC(=O)c2ccccc2F)C(=O)N2CCOCC2)c2ccccc21 | – | 6.51 µM [rising, single point] | –
CC(C)Cn1c(N)c(C(=O)COC(=O)c2ccc(O)cc2O)c(=O)n(C)c1=O | 54% | – | 16.4 µM [rising, single point]
C/C(=N\Nc1cccc2cccnc12)c1ccccn1 | – | 0.58 µM [falling, single point] | –
Cc1ccc2nc(N/C(=N/S(=O)(=O)c3cccs3)c3ccccc3Cl)sc2c1 | 5.68% | – | 0.00461 µM [rising, full curve, poor fit]
O=C(N/N=C/c1ccc2c(c1)OCO2)c1cccs1 | -1.52% | 0.164 µM [falling, full curve, poor fit] | –
Cc1[nH]c2ccccc2c1C(O)CN1CCN(c2cccc(C(F)(F)F)c2)CC1 (stereo not given) | -35.8% | – | 23.1 µM [falling, partial curve, poor fit]
C/C(CCc1oc2ccc(Cl)cc2c1-c1ccc(C)o1)=N\O | -41.2% | – | 23.1 µM [falling, single point]
Cc1cc(C(=O)CN2C(=O)NC3(CCCCC3)C2=O)c(C)n1Cc1ccc2c(c1)OCO2 | -0.54% | 29.1 µM [rising, single point] | –
COc1cc2c(cc1OC)CN(CC(=O)Nc1ccccc1C(=O)NC1CC1)CC2 | 7.35% | 10.3 µM [rising, partial curve, poor fit] | 2.31 µM [rising, partial curve, poor fit]
CCOc1ccccc1N(C(=O)c1snc(C(N)=O)c1N)C(C(=O)NCc1ccccc1)c1ccc(O)cc1 (stereo not given) | -4.84% | 0.731 µM [rising, full curve] | 0.00517 µM [rising, full curve, poor fit]
CCOc1ccc(-n2c(=S)sc3c(=O)[nH]c(SCC(=O)NC(C)CC)nc32)cc1 (stereo not given) | -12.8% | 0.184 µM [rising, full curve, poor fit] | –
CCCCCCNC(=O)C(C(=O)OCC)C1CCCCC1 (stereo not given) | 6.03% | – | –
O=C(CCNS(=O)(=O)c1cccc2nonc12)NC1CCCCC1 | -0.683% | – | –
COc1cccc(/C=N/c2oc(-c3ccccc3)cc2C#N)c1O | – | 0.13 µM [falling, full curve, poor fit] | –
Cc1occc1C(=O)NNC(=O)c1ccc(S(=O)(=O)N(C)C)cc1 | 20.2% | 7.31 µM [rising, partial curve, poor fit] | –

Taken from above, nine compounds:
SMILES | cell number change | AC50 [1] | AC50 [2]
CC(C)Cn1c(N)c(C(=O)COC(=O)c2ccc(O)cc2O)c(=O)n(C)c1=O | 54% | – | 16.4 µM [rising, single point]
C/C(=N\Nc1cccc2cccnc12)c1ccccn1 | – | 0.58 µM [falling, single point] | –
Cc1ccc2nc(N/C(=N/S(=O)(=O)c3cccs3)c3ccccc3Cl)sc2c1 | 5.68% | – | 0.00461 µM [rising, full curve, poor fit]
O=C(N/N=C/c1ccc2c(c1)OCO2)c1cccs1 | -1.52% | 0.164 µM [falling, full curve, poor fit] | –
Cc1[nH]c2ccccc2c1C(O)CN1CCN(c2cccc(C(F)(F)F)c2)CC1 (stereo not given) | -35.8% | – | 23.1 µM [falling, partial curve, poor fit]
C/C(CCc1oc2ccc(Cl)cc2c1-c1ccc(C)o1)=N\O | -41.2% | – | 23.1 µM [falling, single point]
Cc1cc(C(=O)CN2C(=O)NC3(CCCCC3)C2=O)c(C)n1Cc1ccc2c(c1)OCO2 | -0.54% | 29.1 µM [rising, single point] | –
COc1cc2c(cc1OC)CN(CC(=O)Nc1ccccc1C(=O)NC1CC1)CC2 | 7.35% | 10.3 µM [rising, partial curve, poor fit] | 2.31 µM [rising, partial curve, poor fit]
CCOc1ccccc1N(C(=O)c1snc(C(N)=O)c1N)C(C(=O)NCc1ccccc1)c1ccc(O)cc1 (stereo not given) | -4.84% | 0.731 µM [rising, full curve] | 0.00517 µM [rising, full curve, poor fit]
